Assay results: PubChem BioAssay AID256 (DTP/NCI, 2004)
The list shows only some results of the screen, not a fair sample: it is rich in T/C values a quarter to a half above the control, in often repeated tests (any T/C) and in doses without a T/C. Other doses and runs of a compound stand elsewhere. T/C is the treated group as % of the vehicle group. Some entries give survivors of the animals treated and no T/C: the source files T/C as zero there, which appears to mark a toxic dose or a test without result, not a measured value. Some survivor counts are full or nearly so, which does not show that the dose was tolerated: the source hardly ever lists a survival T/C far under the control, and the zero likely stands for such cases as well. Counts of survivors are from the toxicity check (mostly the fifth day) where no day follows; animals may have died later. Schedules are NCI's codes, taken here to give the interval after Q, in days (D) or hours (H), and the number of doses after X. Some molecules as drawn cover several salts, stereoisomers or complexes of the source; a dose is that of the sample tested. For survival time, the PubChem record calls one and a half times the control and up active, and a quarter to a half above the control has no call in these data; cut-offs in other NCI protocols can differ. Some entries were tested several times; the results are listed from low to high. Some T/C values carry the count of animals alive at the toxicity check (mostly the fifth day); without a count, all were alive then.

Test system: CD2F1 mice, L1210 leukemia ip, survival T/C
Test: NCI In Vivo Anticancer Drug Screen. Data for tumor model L1210 Leukemia (intraperitoneal) in CD2F1 (CDF1) mice
Settings: higher T/C = longer survival
In short: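 In this screen, transplantable tumors were grown in mice given either the compound or its vehicle. Results were expressed as the treated measurement relative to the control measurement.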

[1] = T/C endpoint: mean survival time, dose: 100.0 mg/kg/injection, schedule: Q04DX003 (ip), vehicle: saline with Tween-80
[2] = T/C endpoint: mean survival time, dose: 200.0 mg/kg/injection, schedule: Q04DX003 (ip), vehicle: saline with Tween-80
[3] = T/C endpoint: mean survival time, dose: 400.0 mg/kg/injection, schedule: Q04DX003 (ip), vehicle: saline with Tween-80
[4] = T/C endpoint: mean survival time, dose: 75.0 mg/kg/injection, schedule: Q01DX001 (ip), vehicle: saline
[5] = T/C endpoint: mean survival time, dose: 150.0 mg/kg/injection, schedule: Q01DX001 (ip), vehicle: saline
[6] = T/C endpoint: mean survival time, dose: 300.0 mg/kg/injection, schedule: Q01DX001 (ip), vehicle: saline
[7] = T/C endpoint: mean survival time, dose: 400.0 mg/kg/injection, schedule: Q04DX002 (ip), vehicle: saline with Tween-80
[8] = T/C endpoint: mean survival time, dose: 200.0 mg/kg/injection, schedule: Q01DX005 (ip), vehicle: water
[9] = T/C endpoint: mean survival time, dose: 200.0 mg/kg/injection, schedule: Q01DX009 (ip), vehicle: saline with Tween-80
[10] = T/C endpoint: mean survival time, dose: 100.0 mg/kg/injection, schedule: Q01DX001 (ip), vehicle: saline with Tween-80
[11] = T/C endpoint: mean survival time, dose: 200.0 mg/kg/injection, schedule: Q01DX001 (ip), vehicle: saline with Tween-80
[12] = T/C endpoint: mean survival time, dose: 400.0 mg/kg/injection, schedule: Q01DX001 (ip), vehicle: saline with Tween-80
[13] = T/C endpoint: mean survival time, dose: 100.0 mg/kg/injection, schedule: Q01DX009 (ip), vehicle: saline with Tween-80

SMILES: CN(C)C=Nc1ccc2c3c(cccc13)CC2
- survivor count [1]: 1 of 6
- survivor count [2]: 0 of 6
- survivor count [3]: 0 of 6

SMILES: OC1CCCC[CH]1[Hg][Cl] (configuration not stated)
- survivor count [4]: 0 of 6
- survivor count [5]: 0 of 6
- survivor count [6]: 0 of 6

SMILES: COC(=O)CC/C=C\Cc1c(OC)c(C)c2c(c1OC=O)C(=O)OC2
- T/C [7]: 133 % of control
- T/C (T/C endpoint: median survival time, dose: 400.0 mg/kg/injection, schedule: Q04DX002 (ip), vehicle: saline with Tween-80): 131 % of control

SMILES: Nc1ccccc1SSc1ccccc1N
- survivor count [3]: 0 of 6

SMILES: COc1cccc(CN2CCNCC2)c1
- survivor count [8]: 0 of 6
- survivor count (T/C endpoint: mean survival time, dose: 400.0 mg/kg/injection, schedule: Q01DX005 (ip), vehicle: water): 0 of 6

SMILES: CC(C)c1cccc(O)c(=O)c1
- survivor count [9]: 3 of 6

SMILES: CC[N+](CC)=c1ccc2nc3c(cc(N)c4ccccc43)oc-2c1
- survivor count (T/C endpoint: mean survival time, dose: 25.0 mg/kg/injection, schedule: Q01DX009 (ip), vehicle: saline sonified): 2 of 6
- survivor count [1]: 0 of 6
- survivor count [2]: 0 of 6
- survivor count [3]: 0 of 6

SMILES: CC(=O)Nc1ccc(SC(=O)N(C)C)cc1
- survivor count [2]: 2 of 6
- survivor count [3]: 0 of 6

SMILES: COC(=O)C[N+]1(C)C2CCC1CC(Cl)C2 (configuration not stated)
- survivor count (T/C endpoint: mean survival time, dose: 50.0 mg/kg/injection, schedule: Q01DX001 (ip), vehicle: saline): 1 of 3
- survivor count (T/C endpoint: mean survival time, dose: 100.0 mg/kg/injection, schedule: Q01DX001 (ip), vehicle: saline): 0 of 3

SMILES: Cc1ccc(S(=O)(=O)NC(=O)OCCc2c3ccccc3nc3ccccc23)cc1
- survivor count (T/C endpoint: mean survival time, dose: 400.0 mg/kg/injection, schedule: Q04DX002 (ip), vehicle: other): 0 of 3
- survivor count [7]: 0 of 3

SMILES: O=C(O)c1cc(-c2ccc(F)cc2)nc2ccc(F)cc12
- survivor count [3]: 0 of 6

SMILES: CC1(C)N=C(N)N=C(N)N1c1ccc(OCCCCNC(=O)c2cccc(S(=O)(=O)F)c2)c(Cl)c1
- survivor count [10]: 0 of 6
- survivor count [11]: 0 of 6
- survivor count [12]: 0 of 6

SMILES: CCC1c2cc(O)c(OC)cc2CCN1C (configuration not stated)
- survivor count [5]: 1 of 6
- survivor count [6]: 0 of 6

SMILES: COc1ccc(/C=C/C(=O)Oc2cc(O)cc(O)c2)cc1
- survivor count [10]: 6 of 6

SMILES: CSc1ncnc2c1ccn2C1OC(COP(=O)(O)O)C(O)C1O (configuration not stated)
- T/C (T/C endpoint: mean survival time, dose: 100.0 mg/kg/injection, schedule: Q01DX005 (ip), vehicle: water): 127 and 135 % of control
- survivor count [8]: 0 of 6

SMILES: CN1CCC(O)(C#N)CC1
- survivor count [4]: 0 of 6
- survivor count [5]: 0 of 6
- survivor count [6]: 0 of 6

SMILES: C/C=C1\C[C@@H]2C(OC)Nc3cc(O)c(OC)cc3C(=O)N2C1 (some centres not stated)
- survivor count (T/C endpoint: mean survival time, dose: 3.0 mg/kg/injection, schedule: Q04DX002 (ip), vehicle: saline): 1 of 3
- survivor count (T/C endpoint: mean survival time, dose: 6.0 mg/kg/injection, schedule: Q04DX002 (ip), vehicle: saline): 2 of 3

SMILES: CC(C)S(=O)(=O)/C(Cl)=C(/Cl)C(Cl)=C(Cl)Cl
- survivor count [13]: 3 of 6
- survivor count [9]: 2 of 6

SMILES: O=C1CCC(=O)N1C1C=CC=CC=C1
- survivor count (T/C endpoint: mean survival time, dose: 200.0 mg/kg/injection, schedule: Q04DX003 (ip), vehicle: acetone): 3 of 6

SMILES: CCCCCCCCCCCCCCCC[n+]1cccc(C(=O)NCO)c1
- survivor count (T/C endpoint: mean survival time, dose: 50.0 mg/kg/injection, schedule: Q01DX009 (ip), vehicle: saline with Tween-80): 3 of 6
- survivor count [13]: 0 of 6
- survivor count [1]: 0 of 6
- survivor count [9]: 0 of 6

SMILES: C[CH2][Pb]([CH2]C)([CH2]C)[O]C(=O)c1ccc2ccccc2n1
- survivor count (T/C endpoint: mean survival time, dose: 3.13 mg/kg/injection, schedule: Q01DX009 (ip), vehicle: saline with Tween-80): 6 of 6
- survivor count (T/C endpoint: mean survival time, dose: 6.25 mg/kg/injection, schedule: Q01DX009 (ip), vehicle: saline with Tween-80): 3 of 6
- survivor count (T/C endpoint: mean survival time, dose: 12.5 mg/kg/injection, schedule: Q01DX009 (ip), vehicle: saline with Tween-80): 0 of 6

SMILES: Nc1nc(F)nc2c1ncn2C1CC(O)C(CO)O1 (configuration not stated)
- survivor count [6]: 1 of 6

SMILES: C=CCc1cn(C2CC(O)C(CO)O2)c(=O)[nH]c1=O (configuration not stated)
- survivor count (T/C endpoint: mean survival time, dose: 264.0 mg/kg/injection, schedule: Q01DX009 (ip), vehicle: saline): 0 of 6

SMILES: Cc1ccccc1CC#N
- survivor count (T/C endpoint: mean survival time, dose: 50.0 mg/kg/injection, schedule: Q04DX002 (ip), vehicle: saline): 0 of 3
- survivor count (T/C endpoint: mean survival time, dose: 100.0 mg/kg/injection, schedule: Q04DX002 (ip), vehicle: saline): 0 of 3
- survivor count (T/C endpoint: mean survival time, dose: 200.0 mg/kg/injection, schedule: Q04DX002 (ip), vehicle: saline): 0 of 3
- survivor count (T/C endpoint: mean survival time, dose: 400.0 mg/kg/injection, schedule: Q04DX002 (ip), vehicle: saline): 0 of 3

SMILES: CN1C2Cc3cc4c(cc3C1Cc1cc3c(cc12)OCO3)OCO4
- survivor count [6]: 2 of 6

SMILES: Cc1nc(SCc2ccccc2)[nH]c(=O)c1CCO
- survivor count [3]: 5 of 6

SMILES: Oc1cc(O)cc(/C=C/c2ccc(O)c(O)c2)c1
- survivor count (T/C endpoint: median survival time, dose: 100.0 mg/kg/injection, schedule: Q01DX009 (ip), vehicle: DMSO): 5 of 6
- survivor count (T/C endpoint: median survival time, dose: 200.0 mg/kg/injection, schedule: Q01DX009 (ip), vehicle: DMSO): 0 of 6
- survivor count (T/C endpoint: median survival time, dose: 400.0 mg/kg/injection, schedule: Q01DX009 (ip), vehicle: DMSO): 0 of 6

SMILES: CN(C)[C@@H]1C(=O)C(C(=O)NCNC(CO)(CO)CO)=C(O)[C@@]2(O)C(=O)C3=C(O)c4c(O)cccc4[C@@](C)(O)[C@H]3C[C@@H]12
- survivor count (T/C endpoint: mean survival time, dose: 132.0 mg/kg/injection, schedule: Q01DX009 (ip), vehicle: saline): 6 of 6

SMILES: O=c1c(Cl)c(C(Cl)(Cl)Cl)[nH]c2ccc([N+](=O)[O-])cc12
- survivor count [10]: 1 of 6
- survivor count [11]: 0 of 6
- survivor count [12]: 0 of 6

SMILES: CCC(C)CCC/C=C/CC(=O)NC(CC(=O)O)C(=O)NC(C(=O)NC(CC(=O)O)C(=O)NCC(=O)NC(CC(=O)O)C(=O)NCC(=O)NC(C(=O)NC(C(=O)N1CCCC1C(=O)NC(C)C1NC(=O)C2CCCCN2C1=O)C(C)C)C(C)N)C(C)C(=O)O (configuration not stated)
- survivor count (T/C endpoint: mean survival time, dose: 400.0 mg/kg/injection, schedule: Q01DX009 (ip), vehicle: saline + alcohol): 1 of 6

SMILES: O=C1CC2CCCCC2CO1 (configuration not stated)
- survivor count [5]: 1 of 6
- survivor count [6]: 0 of 6

SMILES: CCCCOC(=O)COc1c(Cl)ccc(Cl)c1Cl
- survivor count [7]: 1 of 3

SMILES: COC(=O)Nc1cccc(-c2nc3ccc(NC(=O)OC)cc3c(=O)n2-c2ccccc2)c1
- survivor count (T/C endpoint: mean survival time, dose: 200.0 mg/kg/injection, schedule: Q01DX009 (ip), vehicle: Klucel (hydroxypropylcellulose) (HPC)): 0 of 6
- survivor count (T/C endpoint: mean survival time, dose: 400.0 mg/kg/injection, schedule: Q01DX009 (ip), vehicle: Klucel (hydroxypropylcellulose) (HPC)): 0 of 6
- T/C (T/C endpoint: median survival time, dose: 400.0 mg/kg/injection, schedule: Q04DX003 (ip), vehicle: saline with Tween-80): 129 % of control [9 of 10 alive]

SMILES: O=C(NO)c1ccc(O)c(O)c1O
- survivor count (T/C endpoint: mean survival time, dose: 200.0 mg/kg/injection, schedule: Q01DX009 (ip), vehicle: distilled water + Tween-80): 3 of 6

SMILES: COc1ccc(C=C(C(=O)CCN(C)C)C(=O)CCN(C)C)cc1
- survivor count (T/C endpoint: median survival time, dose: 400.0 mg/kg/injection, schedule: Q01DX005 (ip), vehicle: saline): 2 of 6

SMILES: CCC(C)C(C(=O)OCC[N+](C)(CC)CC)c1ccc(C)c(C)c1 (configuration not stated)
- survivor count (T/C endpoint: mean survival time, dose: 100.0 mg/kg/injection, schedule: Q04DX003 (ip), vehicle: saline): 0 of 6
- survivor count (T/C endpoint: mean survival time, dose: 200.0 mg/kg/injection, schedule: Q04DX003 (ip), vehicle: saline): 0 of 6
- survivor count (T/C endpoint: mean survival time, dose: 400.0 mg/kg/injection, schedule: Q04DX003 (ip), vehicle: saline): 0 of 6

SMILES: O=C(O)/C=C(/Br)C(=O)O
- survivor count (T/C endpoint: mean survival time, dose: 400.0 mg/kg/injection, schedule: Q01DX001 (ip), vehicle: saline): 3 of 6

SMILES: CC1(C)C2CC=C(CCN=[N+]=[N-])C1C2 (configuration not stated)
- survivor count [3]: 6 of 6

SMILES: O=C/C=C/C=O
- survivor count (T/C endpoint: mean survival time, dose: 25.0 mg/kg/injection, schedule: Q01DX001 (ip), vehicle: saline with Tween-80): 0 of 3

SMILES: Nc1ccc(S(=O)(=O)Nc2cnc3c(Cl)cccc3n2)cc1
- survivor count (T/C endpoint: median survival time, dose: 1200.0 mg/kg/injection, schedule: Q01DX005 (ip), vehicle: DMSO): 0 of 6
